The list shows a part of the results. Further columns of the screen follow, without active or inactive calls. The list favours compounds with an active or inconclusive main result. Words in brackets tell the shape of the fitted curve; partial curves, single points and poor fits give uncertain potencies.
Experiment: qHTS Assay for Modulators of Lamin A Splicing
Settings: HeLa LMNA splicing GFP/RFP minigene ratio, 48 h
In short: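 S3 HeLa stable clones carrying a lamin A-EGFP splicing minigene plus DsRed2 were seeded at 600 cells/well in Opti-MEM with 2% FBS, pin-dosed and incubated 48 h at 37°C. Acumen cytometry (488 nm) gave the GFP/RFP total-intensity ratio.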

[1] = measured here: GFP splicing reporter channel
[2] = measured here: RFP viability control channel

| Structure (SMILES) | AC50 [1] | AC50 [2] |
| --- | --- | --- |
| COc1ccc(C(=O)/C=C/c2cc(OC)c(O)c(OC)c2)c(F)c1 | 35.5 µM [falling, partial curve] | 31.6 µM [falling, single point] |
| CCOP(=O)(OCC)c1nc(-c2ccc(Cl)cc2Cl)oc1N1CCOCC1 | 2 µM [falling, partial curve] | 6.31 µM [falling, partial curve, poor fit] |
| Cc1ccc(/C(C#N)=C\c2ccc(N3CCOCC3)o2)cc1 | 35.5 µM [falling, single point] | 35.5 µM [falling, single point] |
| COc1ccc(CNC(=S)Nc2ccccc2-c2ccccc2)cc1 |  | 6.31 µM [falling, single point] |
| CCN1c2ccccc2N(C)C1(C)c1ccccc1 (configuration not stated) |  | 7.08 µM [rising, full curve, poor fit] |
| CCOC(=O)N1CCC(N2C(=O)c3ccccc3C2Nc2ccc3c(C)cc(=O)oc3c2)CC1 (configuration not stated) |  | 17.8 µM [rising, partial curve, poor fit] |
| CN(C)S(=O)(=O)c1cccc(NC(=O)COC(=O)C2(c3ccccc3F)CCCC2)c1 |  | 11.2 µM [rising, partial curve] |
| COc1ccc(C(=O)CCN2CCCCCC2)cc1 |  | 0.224 µM [falling, full curve, poor fit] |
| O=C1CC(c2ccco2)CC(O)=C1C=Nc1cc(Cl)ccc1O (configuration not stated) |  | 5.62 µM [rising, partial curve] |
| CCOc1ccc(-c2nnn(CC(=O)NCCc3c[nH]c4ccccc34)n2)cc1 |  | 35.5 µM [rising, single point] |
| COc1ccc(-c2nnc(SCC(=O)NCc3ccccc3)nc2-c2ccc(OC)c(OC)c2)cc1OC | 20 µM [rising, partial curve] | 17.8 µM [rising, partial curve] |
| O=C(Nc1ccccc1)c1cc2ccccc2[nH]1 | 31.6 µM [rising, single point] | 35.5 µM [rising, single point] |
| CCc1nc(C)cn1S(=O)(=O)c1cc([N+](=O)[O-])ccc1Cl | 0.0708 µM [falling, partial curve] | 0.355 µM [falling, partial curve] |
| Cc1cc(C)n(CC(O)Cn2c3ccc(Cl)cc3c3cc(Cl)ccc32)c(=O)n1 (configuration not stated) |  | 12.6 µM [rising, single point] |
| CCOC(=O)C1(Cc2ccccc2)CCN(Cc2cccn2-c2cccnc2)CC1 | 0.00447 µM [rising, full curve, poor fit] |  |
| CC1(C)NC(=O)N(CCCCSc2ccc(Cl)cc2)C1=O |  | 10 µM [rising, partial curve] |
| Cc1ccc(NS(=O)(=O)c2cc(C(=O)NCCSc3ccc(C)cc3)ccc2C)cc1 | 12.6 µM [falling, partial curve, poor fit] | 20 µM [falling, single point] |
| Cc1ccc(Cc2c(C)nc3nc(SCC(=O)NCc4ccco4)nn3c2C)cc1 | 4.47 µM [falling, full curve] | 4.47 µM [falling, full curve] |

| Structure (SMILES) | AC50 [1] | AC50 [2] |
| --- | --- | --- |
| Cn1c(SCC(=O)N/N=C/c2ccc([N+](=O)[O-])s2)nnc1-c1ccccc1 |  | 31.6 µM [rising, single point] |
| COc1ccc(NC(=O)N2CCN(c3cccc(C(F)(F)F)c3)CC2)cc1 |  | 1.12 µM [rising, full curve, poor fit] |
| CC1=NN(C(=O)COc2ccccc2)C(O)(c2cccnc2)C1 (configuration not stated) | 0.112 µM [rising, single point] |  |
| Cc1ccc(NC(=O)CSc2nc3ccccc3c3nc(CCn4cncc4C)nn23)c(C)c1 | 0.00891 µM [falling, full curve] |  |
| CN(C1CCCCC1)S(=O)(=O)c1ccc(NC(=O)C2CCCCC2)cc1 | 0.316 µM [rising, full curve, poor fit] | 14.1 µM [rising, partial curve, poor fit] |
| Oc1c(C(c2ccc(Br)cc2)N2CCOCC2)sc2nc(-c3ccco3)nn12 (configuration not stated) |  | 1.26 µM [falling, full curve, poor fit] |
| O=C(NCc1ccc(F)cc1)C(=O)NCC1OCCN1S(=O)(=O)c1cccs1 (configuration not stated) | 0.282 µM [falling, full curve, poor fit] |  |
| Cc1ccc2c(c1)c1c(n2CC(O)Cn2nc(C)c(Br)c2C)CCCC1 (configuration not stated) | 35.5 µM [falling, single point] | 20 µM [falling, single point] |
| COCCOC(=O)c1c(C)nc(SCC(=O)Nc2ccc(C)cc2)c(C#N)c1-c1ccco1 |  | 22.4 µM [rising, single point] |
| CCC(OCC(O)CN1CCN(CCN2C(=O)c3cccc4cccc(c34)C2=O)CC1)c1ccccc1 (configuration not stated) | 5.62 µM [falling, partial curve] | 3.55 µM [falling, partial curve] |
| COc1ccc(CN(C(=O)CSc2nnc(-c3c[nH]c4ccccc34)o2)c2ccc(F)cc2)cc1OC |  | 31.6 µM [falling, single point] |
| Cc1c(-c2cc[n+]([O-])cc2)oc2ccc(Br)cc2c1=O |  | 1.78 µM [rising, full curve, poor fit] |
| COC(=O)CSC1=C(C#N)C(c2cccc(F)c2)CC(=O)N1 (configuration not stated) | 35.5 µM [falling, single point] | 35.5 µM [falling, single point] |
| CCOC(=O)c1cnc(-c2ccccc2)nc1Oc1ccc(OC)cc1 |  | 35.5 µM [rising, single point] |
| CC1(C)CC(=O)C(C(C2=C(O)CC(C)(C)CC2=O)c2ccc(O)c([N+](=O)[O-])c2)=C(O)C1 |  | 0.501 µM [falling, full curve, poor fit] |
| CCc1cc(/C(Cc2cscn2)=N\O)c(O)cc1O |  | 20 µM [rising, single point] |
| O=c1c(-c2ccccc2)nc2cnc(Oc3cccc(Cl)c3)nc2n1C1CC1 | 14.1 µM [falling, partial curve] |  |

Reformatted with bars between the fields: entries from further up.
Structure (SMILES) | AC50 [1] | AC50 [2]
CCOC(=O)c1cnc(-c2ccccc2)nc1Oc1ccc(OC)cc1 |  | 35.5 µM [rising, single point]
CC1(C)CC(=O)C(C(C2=C(O)CC(C)(C)CC2=O)c2ccc(O)c([N+](=O)[O-])c2)=C(O)C1 |  | 0.501 µM [falling, full curve, poor fit]

Source: PubChem BioAssay AID1487 (National Center for Advancing Translational Sciences (NCATS), 2009)
